Reference: paper PMC10029841

Chains of the proteins cited; added tags and fusions are not shown. Residues count along the entry.
UniProt Q13308, 31-1070: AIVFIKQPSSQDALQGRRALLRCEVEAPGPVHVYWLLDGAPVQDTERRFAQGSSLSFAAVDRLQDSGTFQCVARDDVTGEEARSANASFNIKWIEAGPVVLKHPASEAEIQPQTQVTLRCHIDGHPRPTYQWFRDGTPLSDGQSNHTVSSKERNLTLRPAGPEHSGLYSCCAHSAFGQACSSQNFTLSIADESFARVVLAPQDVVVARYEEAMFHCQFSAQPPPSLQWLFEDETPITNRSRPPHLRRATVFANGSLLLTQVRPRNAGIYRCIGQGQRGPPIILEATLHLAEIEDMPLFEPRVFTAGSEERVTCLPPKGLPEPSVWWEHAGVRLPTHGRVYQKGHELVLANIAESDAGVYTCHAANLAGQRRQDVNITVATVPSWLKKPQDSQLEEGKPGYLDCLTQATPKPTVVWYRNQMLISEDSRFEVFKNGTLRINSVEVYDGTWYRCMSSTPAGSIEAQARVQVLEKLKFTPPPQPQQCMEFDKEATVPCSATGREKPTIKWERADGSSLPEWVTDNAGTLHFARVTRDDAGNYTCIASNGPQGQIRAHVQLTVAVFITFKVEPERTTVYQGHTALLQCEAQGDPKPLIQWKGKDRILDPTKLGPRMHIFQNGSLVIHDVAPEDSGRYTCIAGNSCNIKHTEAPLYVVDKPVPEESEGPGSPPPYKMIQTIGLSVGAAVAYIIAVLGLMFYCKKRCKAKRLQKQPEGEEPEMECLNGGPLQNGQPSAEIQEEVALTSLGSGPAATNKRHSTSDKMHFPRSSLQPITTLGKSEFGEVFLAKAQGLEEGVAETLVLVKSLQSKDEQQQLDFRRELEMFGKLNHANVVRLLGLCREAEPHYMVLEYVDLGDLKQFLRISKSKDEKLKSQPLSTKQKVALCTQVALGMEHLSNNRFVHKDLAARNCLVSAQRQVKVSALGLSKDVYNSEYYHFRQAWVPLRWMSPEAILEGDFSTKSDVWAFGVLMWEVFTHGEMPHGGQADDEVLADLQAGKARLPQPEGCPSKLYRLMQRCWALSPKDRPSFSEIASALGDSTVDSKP
UniProt P14151, 39-372: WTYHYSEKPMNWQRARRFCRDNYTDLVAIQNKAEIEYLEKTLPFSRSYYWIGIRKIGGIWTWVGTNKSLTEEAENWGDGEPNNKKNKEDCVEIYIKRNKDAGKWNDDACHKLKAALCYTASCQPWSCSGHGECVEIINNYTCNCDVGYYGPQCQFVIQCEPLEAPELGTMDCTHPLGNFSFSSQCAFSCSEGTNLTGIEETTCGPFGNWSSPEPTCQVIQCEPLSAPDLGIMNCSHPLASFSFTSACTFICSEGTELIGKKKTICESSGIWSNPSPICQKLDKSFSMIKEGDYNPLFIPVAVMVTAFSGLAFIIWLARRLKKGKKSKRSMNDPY

Key:
Assay in all cases: flow cytometry (whole cells)
[1] = biological target: transferrin receptor 1 on K562 cells (UniProt P02786); settings: K562, 250 nM, DPBS with 4.5 g/L glucose, 5 mM MgCl2, 0.1 mg/mL yeast tRNA, 1 mg/mL BSA, 4 °C, 45 min, protein on the cell surface, folded or branched DNA
[2] = biological target: transferrin receptor 1 on CCRF-CEM cells (UniProt P02786); settings: CCRF-CEM, 250 nM, DPBS with 4.5 g/L glucose, 5 mM MgCl2, 0.1 mg/mL yeast tRNA, 1 mg/mL BSA, 4 °C, 45 min, protein on the cell surface, folded or branched DNA
[3] = biological target: tyrosine-protein kinase 7 (PTK7) on CCRF-CEM cells (UniProt Q13308); settings: CCRF-CEM, 250 nM, DPBS with 4.5 g/L glucose, 5 mM MgCl2, 0.1 mg/mL yeast tRNA, 1 mg/mL BSA, 4 °C, 45 min, protein on the cell surface, folded or branched DNA
[4] = biological target: CD62L on Jurkat cells (Homo sapiens) (UniProt P14151); settings: Jurkat, 250 nM, DPBS with 4.5 g/L glucose, 5 mM MgCl2, 0.1 mg/mL yeast tRNA, 1 mg/mL BSA, 4 °C, 45 min, protein on the cell surface, folded or branched DNA

Sequence: ACTCATAGGGTTAGGGGCTGCTGGCCAGATACTCAGATGGTAGGGTTACTATGAGC / ACTCATAGGGTTAGGGGCTGCTGGCCAGATACTCAGATGGTAGGGTTACTATGAGC [XQ-2d~XQ-2d]
- binding result ([1]; stronger than XQ-2d, 5',3'-diazide joined to 5',3'-diDBCO strand by SPAAC, circular): binds

Sequence: ACTCATAGGGTTAGGGGCTGCTGGCCAGATACTCAGATGGTAGGGTTACTATGAGC [XQ-2d]
- binding result [1]: binds
- binding result [2]: binds

Sequence: ATCTAACTGCTGCGCCGCCGGGAAAATACTGTACGGTTAGA / ACTCATAGGGTTAGGGGCTGCTGGCCAGATACTCAGATGGTAGGGTTACTATGAGC [SXCBApt (Sgc8c~XQ-2d)]
- binding result ([3]; stronger than monovalent, dual target with TfR1, 5',3'-diazide Sgc8c joined to 5',3'-diDBCO XQ-2d by SPAAC, circular): binds
- binding result ([2]; stronger than monovalent, dual target with PTK7, 5',3'-diazide Sgc8c joined to 5',3'-diDBCO XQ-2d by SPAAC, circular): binds

Sequence: ATCTAACTGCTGCGCCGCCGGGAAAATACTGTACGGTTAGA / ATCTAACTGCTGCGCCGCCGGGAAAATACTGTACGGTTAGA [Sgc8c~Sgc8c]
- binding result ([3]; stronger than Sgc8c, 5',3'-diazide joined to 5',3'-diDBCO strand by SPAAC, circular): binds

Sequence: ATCTAACTGCTGCGCCGCCGGGAAAATACTGTACGGTTAGA [Sgc8c]
- binding result [3]: binds

Sequence: TAGCCAAGGTAACCAGTACAAGGTGCTAAACGTAATGGCTTCGGCTTAC / TAGCCAAGGTAACCAGTACAAGGTGCTAAACGTAATGGCTTCGGCTTAC [LD201t1~LD201t1]
- binding result ([4]; stronger than LD201t1, 5',3'-diazide joined to 5',3'-diDBCO strand by SPAAC, circular): binds

Sequence: TAGCCAAGGTAACCAGTACAAGGTGCTAAACGTAATGGCTTCGGCTTAC [LD201t1]
- binding result [4]: binds

For at least one entry, the source does not settle the construct or the ends of the probe. Where cells or extracts were used, other partners may take part. At least one verdict was read from the data and is not stated in words by the source.
